Like-named read-outs stand apart in the source and are kept apart here.

The test system of one series is HCC-2998. Nature of the series: NCI DTP in-vitro dose response, Colon Cancer. It counts as cell-based.
For the next series, the system named is HT29. Nature of the series: NCI DTP in-vitro dose response, Colon Cancer. Type of series: cell-based.
The next series deals with KM12. Nature of the series: NCI DTP in-vitro dose response, Colon Cancer. Type of series: cell-based.
A further series relates to HCT-15. Kind of series: NCI DTP in-vitro dose response, Colon Cancer. Type of series: cell-based.
In the next series the test system is SNB-75. Kind of series: NCI DTP in-vitro dose response, CNS Cancer. Type of series: cell-based.
In a further series the test system is U251. Kind of series: NCI DTP in-vitro dose response, CNS Cancer. It counts as cell-based.
The next series deals with SK-MEL-28. Nature of the series: NCI DTP in-vitro dose response, Melanoma. Type of series: cell-based.
A further series has as its system MALME-3M. Kind of series: NCI DTP in-vitro dose response, Melanoma. It counts as cell-based.
The subject of another series is UACC-257. Nature of the series: NCI DTP in-vitro dose response, Melanoma. It counts as cell-based.
A further series concerns UACC-62. Nature of the series: NCI DTP in-vitro dose response, Melanoma. Type of series: cell-based.
Another series deals with OVCAR-5. Nature of the series: NCI DTP in-vitro dose response, Ovarian Cancer. It counts as cell-based.
A further series has as its system OVCAR-4. Kind of series: NCI DTP in-vitro dose response, Ovarian Cancer. It counts as cell-based.
Another series concerns MDA-MB-231/ATCC. Nature of the series: NCI DTP in-vitro dose response, Breast Cancer. Type of series: cell-based. To be noted: MDA-MB-231/ATCC.
In the next series the test system is BT-549. Kind of series: NCI DTP in-vitro dose response, Breast Cancer. Type of series: cell-based.

Turning to `O=C1c2ccccc2C(=O)c2c1ccc1nccnc21` [TABLE 5-1], the “Mean Optical Densities” value is 0.535 in the series with RPMI-8226 (Log10 Concentration −4.0); 0.702 in the series with RPMI-8226 (Log10 Concentration −5.0); 0.926 in the series on RPMI-8226 (Log10 Concentration −6.0); 1.161 in the series with RPMI-8226 (Log10 Concentration −7.0); 1.245 in the series with RPMI-8226 (Log10 Concentration −8.0); 0.344 in the series on CCRF-CEM (Log10 Concentration −4.0). In addition, the “Mean Optical Densities” value with CCRF-CEM (Log10 Concentration −5.0) is recorded as 0.358; in the series on CCRF-CEM (Log10 Concentration −6.0) it was 0.622; with CCRF-CEM (Log10 Concentration −7.0) it was 0.755; in the series on CCRF-CEM (Log10 Concentration −8.0), 0.751.

Take `O=C1c2ccccc2C(=O)c2c1ccc1nccnc21` [TABLE 5-3]: the “Mean Optical Densities” value in the series on HCC-2998 (Log10 Concentration −4.0) is on record as 0.315; with HCC-2998 (Log10 Concentration −5.0), 0.658; with HCC-2998 (Log10 Concentration −6.0) it was 0.759; in the series on HCC-2998 (Log10 Concentration −7.0), 1.113; in the series with HCC-2998 (Log10 Concentration −8.0) it was 1.135; in the series with HT29 (Log10 Concentration −4.0) it was 0.184. Further, the “Mean Optical Densities” value with HT29 (Log10 Concentration −5.0) was found to be 0.636; in the series on HT29 (Log10 Concentration −6.0), 0.925; in the series on HT29 (Log10 Concentration −7.0), 1.131; with HT29 (Log10 Concentration −8.0), 1.176; with KM12 (Log10 Concentration −4.0), 0.185; with KM12 (Log10 Concentration −5.0) it was 0.522. Also, the “Mean Optical Densities” value in the series with KM12 (Log10 Concentration −6.0) is 0.786; with KM12 (Log10 Concentration −7.0), 0.896; in the series on KM12 (Log10 Concentration −8.0), 0.884; with HCT-15 (Log10 Concentration −4.0) it was 0.266; with HCT-15 (Log10 Concentration −5.0), 0.784; with HCT-15 (Log10 Concentration −6.0) it was 1.343. The “Mean Optical Densities” value in the series with HCT-15 (Log10 Concentration −7.0) was determined as 1.449; in the series on HCT-15 (Log10 Concentration −8.0), 1.502.

Regarding `O=C1c2ccccc2C(=O)c2c1ccc1nccnc21` [TABLE 5-4], the “Mean Optical Densities” value in the series with SNB-75 (Log10 Concentration −4.0) was 0.740; in the series with SNB-75 (Log10 Concentration −5.0), 1.079; in the series on SNB-75 (Log10 Concentration −6.0), 1.264; in the series with SNB-75 (Log10 Concentration −7.0), 1.350; in the series on SNB-75 (Log10 Concentration −8.0), 1.324; with U251 (Log10 Concentration −4.0), 0.184. For the same compound, the “Mean Optical Densities” value was determined as 0.604 in the series on U251 (Log10 Concentration −5.0), 1.172 with U251 (Log10 Concentration −6.0), 1.205 in the series on U251 (Log10 Concentration −7.0) and 1.242 with U251 (Log10 Concentration −8.0).

Turning to `O=C1c2ccccc2C(=O)c2c1ccc1nccnc21` [TABLE 5-5], the “Mean Optical Densities” value in the series with SK-MEL-28 (Log10 Concentration −4.0) stood at 0.352; in the series on SK-MEL-28 (Log10 Concentration −5.0), 0.873; with SK-MEL-28 (Log10 Concentration −6.0) it was 1.070; with SK-MEL-28 (Log10 Concentration −7.0) it was 1.050; with SK-MEL-28 (Log10 Concentration −8.0), 1.041; with MALME-3M (Log10 Concentration −4.0), 0.145. In addition, the “Mean Optical Densities” value in the series on MALME-3M (Log10 Concentration −5.0) came out at 0.498; in the series on MALME-3M (Log10 Concentration −6.0) it was 0.687; with MALME-3M (Log10 Concentration −7.0), 0.696; in the series on MALME-3M (Log10 Concentration −8.0) it was 0.715; in the series with UACC-257 (Log10 Concentration −4.0) it was 0.413; with UACC-257 (Log10 Concentration −5.0) it was 0.815. Further, the “Mean Optical Densities” value in the series with UACC-257 (Log10 Concentration −6.0) turned out to be 1.063; in the series on UACC-257 (Log10 Concentration −7.0) it was 0.996; in the series with UACC-257 (Log10 Concentration −8.0), 1.040; with UACC-62 (Log10 Concentration −4.0), 0.662; in the series on UACC-62 (Log10 Concentration −5.0), 1.655; with UACC-62 (Log10 Concentration −6.0) it was 2.030. For the same compound, the “Mean Optical Densities” value came to 1.986 in the series with UACC-62 (Log10 Concentration −7.0) and 2.103 in the series with UACC-62 (Log10 Concentration −8.0).

`O=C1c2ccccc2C(=O)c2c1ccc1nccnc21` [TABLE 5-6]: the “Mean Optical Densities” value was found to be 0.506 in the series on OVCAR-5 (Log10 Concentration −4.0); 0.912 with OVCAR-5 (Log10 Concentration −5.0); 1.056 in the series with OVCAR-5 (Log10 Concentration −6.0); 0.999 in the series with OVCAR-5 (Log10 Concentration −7.0); 1.054 with OVCAR-5 (Log10 Concentration −8.0); 0.472 in the series on OVCAR-4 (Log10 Concentration −4.0). Moreover, the “Mean Optical Densities” value stood at 0.883 in the series on OVCAR-4 (Log10 Concentration −5.0), 1.075 in the series with OVCAR-4 (Log10 Concentration −6.0), 1.220 with OVCAR-4 (Log10 Concentration −7.0) and 1.311 with OVCAR-4 (Log10 Concentration −8.0).

For the compound `O=C1c2ccccc2C(=O)c2c1ccc1nccnc21` [TABLE 5-9], the “Mean Optical Densities” value was determined as 0.535 in the series with MDA-MB-231/ATCC (Log10 Concentration −4.0); 0.854 in the series on MDA-MB-231/ATCC (Log10 Concentration −5.0); 0.987 in the series with MDA-MB-231/ATCC (Log10 Concentration −6.0); 1.008 in the series with MDA-MB-231/ATCC (Log10 Concentration −7.0); 1.085 in the series on MDA-MB-231/ATCC (Log10 Concentration −8.0); 0.562 in the series with BT-549 (BT-549, Log10 Concentration −4.0). In addition, the “Mean Optical Densities” value in the series with BT-549 (BT-549, Log10 Concentration −5.0) is reported as 0.886; in the series with BT-549 (BT-549, Log10 Concentration −6.0), 1.044; in the series with BT-549 (BT-549, Log10 Concentration −7.0), 1.057; in the series on BT-549 (BT-549, Log10 Concentration −8.0) it was 1.114.

For the origin of these results see patent US8445492B2, “Method for inhibiting growth of cancer cells and cell telomere and diseases of cell proliferation by using heteroannelated anthraquinone derivative compounds” (National Defense Medical Center, priority 2008, dated 2013).
